This is an account of results in publication PMC3779186.

By UniProt entry, the sequences of proteins in these tests, tags left out. Residues count along the entry.
UniProt P78324, residues 31-504: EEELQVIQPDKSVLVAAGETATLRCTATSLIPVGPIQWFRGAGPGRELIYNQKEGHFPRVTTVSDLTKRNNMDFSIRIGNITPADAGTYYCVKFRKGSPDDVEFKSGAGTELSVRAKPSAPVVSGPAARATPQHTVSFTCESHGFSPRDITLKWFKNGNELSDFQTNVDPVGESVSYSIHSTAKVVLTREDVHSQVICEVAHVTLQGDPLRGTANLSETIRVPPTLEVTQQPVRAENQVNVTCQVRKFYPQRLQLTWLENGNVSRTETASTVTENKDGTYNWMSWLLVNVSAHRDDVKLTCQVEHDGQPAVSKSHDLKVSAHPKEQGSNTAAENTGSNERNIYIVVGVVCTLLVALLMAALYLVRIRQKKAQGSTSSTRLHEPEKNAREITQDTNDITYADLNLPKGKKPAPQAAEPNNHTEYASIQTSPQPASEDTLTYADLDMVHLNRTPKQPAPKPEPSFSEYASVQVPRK
UniProt P40763: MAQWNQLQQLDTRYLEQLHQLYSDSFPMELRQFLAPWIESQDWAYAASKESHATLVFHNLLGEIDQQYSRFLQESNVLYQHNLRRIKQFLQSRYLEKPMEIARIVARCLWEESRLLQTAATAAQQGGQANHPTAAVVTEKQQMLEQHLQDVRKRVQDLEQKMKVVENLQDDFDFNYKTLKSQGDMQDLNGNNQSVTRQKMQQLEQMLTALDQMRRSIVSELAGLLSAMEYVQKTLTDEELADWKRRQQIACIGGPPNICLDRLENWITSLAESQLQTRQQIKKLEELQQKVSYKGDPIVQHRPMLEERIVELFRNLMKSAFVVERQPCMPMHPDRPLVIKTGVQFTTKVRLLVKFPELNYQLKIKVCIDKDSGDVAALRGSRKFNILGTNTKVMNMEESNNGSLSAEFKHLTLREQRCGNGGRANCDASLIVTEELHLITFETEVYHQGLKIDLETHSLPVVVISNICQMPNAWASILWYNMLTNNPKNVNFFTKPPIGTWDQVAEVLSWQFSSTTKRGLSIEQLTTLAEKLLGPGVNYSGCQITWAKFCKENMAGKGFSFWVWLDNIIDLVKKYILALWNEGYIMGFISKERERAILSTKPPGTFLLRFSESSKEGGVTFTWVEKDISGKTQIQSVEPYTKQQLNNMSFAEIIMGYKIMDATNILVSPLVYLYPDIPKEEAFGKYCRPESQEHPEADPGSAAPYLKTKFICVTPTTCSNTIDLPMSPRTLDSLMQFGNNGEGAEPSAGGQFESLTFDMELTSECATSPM

The target of experiment [1] is signal-regulatory-protein α (SIRPα) (human (endogenous in monocytes of healthy donors)) (UniProt P78324). Put plainly: co-IP; anti-SIRPα precipitates from isolated monocytes; data not shown.
Experiment [2] shares this target. Put plainly: co-IP; anti-SIRPα mAb and protein A-Sepharose on lysates (1% Nonidet P-40, 150 mM NaCl) of monocytes mixed with MCF-7 without or with 2 h of co-culture; immunoblot with anti-STAT3 and anti-phospho-STAT3 (Tyr705). (In general: A western blot detects proteins with antibodies after separation by electrophoresis.)

Results are given in words; binding and its absence hold for the method and conditions named. Binding seen in cells or lysates may run through a third protein. Some binding calls cover weakened binding; strength is not graded here.

For “Signal Transducer and Activators of Transcription-3 (STAT3) (from UniProt P40763 1-770)”, the binding result in experiment [1] and in experiment [2] was “binds” each time.
